Primary screen of a compound library

The chains behind the UniProt entries cited, without tags or fusion partners. Residues count along the entry.
UniProt Q8IDJ8, 1-583: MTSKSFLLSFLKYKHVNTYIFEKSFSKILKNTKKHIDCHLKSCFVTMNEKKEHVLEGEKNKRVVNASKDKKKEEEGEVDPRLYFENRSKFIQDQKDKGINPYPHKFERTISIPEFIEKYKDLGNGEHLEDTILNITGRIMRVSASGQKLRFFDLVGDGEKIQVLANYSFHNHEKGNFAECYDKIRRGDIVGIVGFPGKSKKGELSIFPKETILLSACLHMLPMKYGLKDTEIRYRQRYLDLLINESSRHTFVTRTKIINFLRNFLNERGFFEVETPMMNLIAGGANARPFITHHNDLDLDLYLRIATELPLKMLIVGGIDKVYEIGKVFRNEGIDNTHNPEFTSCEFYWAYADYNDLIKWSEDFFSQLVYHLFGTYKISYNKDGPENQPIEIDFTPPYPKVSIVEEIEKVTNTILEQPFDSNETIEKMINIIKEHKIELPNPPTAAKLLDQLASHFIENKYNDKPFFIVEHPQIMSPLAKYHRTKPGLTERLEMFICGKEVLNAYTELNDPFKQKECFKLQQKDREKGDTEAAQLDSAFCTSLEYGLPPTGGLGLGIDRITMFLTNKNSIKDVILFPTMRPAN
UniProt Q4DA54, 1-478: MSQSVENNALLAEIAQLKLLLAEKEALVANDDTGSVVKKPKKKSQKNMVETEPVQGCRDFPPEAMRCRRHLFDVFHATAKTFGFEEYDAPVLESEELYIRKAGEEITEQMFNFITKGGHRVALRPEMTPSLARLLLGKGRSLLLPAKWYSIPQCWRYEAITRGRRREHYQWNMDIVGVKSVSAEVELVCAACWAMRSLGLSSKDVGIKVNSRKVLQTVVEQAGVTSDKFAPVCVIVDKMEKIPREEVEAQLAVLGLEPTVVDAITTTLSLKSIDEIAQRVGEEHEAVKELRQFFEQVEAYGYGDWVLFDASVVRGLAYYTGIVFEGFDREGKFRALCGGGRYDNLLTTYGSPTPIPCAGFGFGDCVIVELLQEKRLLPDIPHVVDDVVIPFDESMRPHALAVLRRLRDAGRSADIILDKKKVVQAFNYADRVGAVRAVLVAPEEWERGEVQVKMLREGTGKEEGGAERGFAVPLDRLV

Measurements from “University of Dundee, Small-Polar-MMV Screening Library” (2021), ChEMBL document CHEMBL3988442.

A: 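Cell assay of Leishmania donovani living inside macrophages; the read-out is not stated. Concentration: 30 µM. The record gives no direction; compounds that gave an IC50 in retests scored well above the rest, so higher reads as stronger inhibition. Size under these conditions: about 69,000 compounds, about 1,000 of them at 50% or above in at least one test.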
B: 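Whole-parasite assay of Trypanosoma brucei over 72 hours; the read-out is not stated. Tested at 30 µM. Direction is inferred from retests: higher values go with stronger inhibition. Values scatter widely below zero; nearly all retest evidence comes from the higher of the two concentrations used. About 64,000 compounds were tested under these conditions; 1.5% (about 940) showed 50% or more at least once.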
C: 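Assay of Toxoplasma gondii numbers, read through their beta-galactosidase reporter with a colour substrate. Concentration: 10 µM. Higher reads as fewer parasites (inferred from which compounds were picked for retests). Of about 67,000 compounds tested this way, about 260 (0.38%) reached 50% or more in at least one test.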
D: 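Enzyme assay of the cytosolic lysyl-tRNA synthetase in 384-well plates, read by luminescence. Target: Lysine-tRNA ligase, Plasmodium falciparum 3D7 (UniProt Q8IDJ8). Tested at 30 µM. Higher reads as stronger inhibition, judged from the few compounds that gave an IC50. Of about 69,000 compounds tested this way, about 49 (0.071%) reached 50% or more in at least one test.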
E: 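Enzyme assay of histidyl-tRNA synthetase; the read-out is not stated. Target: Histidine-tRNA ligase, Trypanosoma cruzi CL Brener (UniProt Q4DA54). Compounds at 30 µM. The record gives no direction; compounds that gave an IC50 in retests scored well above the rest, so higher reads as stronger inhibition. Size under these conditions: about 69,000 compounds, about 31 of them at 50% or above in at least one test.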

Values are the deposited “Percent Effect”, in %. How 0% and 100% were set is not recorded. Most values in the screen are low, and negative values occur. This is an unselected part of the compounds tested. Two or more numbers in one place are separate tests of the same structure; such repeats can differ widely.

With CNC(=O)CN1CCO[C@H]2CN(C(=O)c3ccncc3F)C[C@H]21 the screen gave D: 3.752%; E: 3.681%.
With O=C1OC2(CCN(C3CCCOC3)CC2)CN1CCc1ccccc1 (configuration not stated) the screen gave A: -14.45%; B: -2.998%; C: -9.171%; D: 1.313%; E: 6.695%.
With O=C(NC1CCCCNC1=O)c1cc2ccccc2[nH]c1=O (configuration not stated) the screen gave A: 5.202%; B: -35.98%; C: 9.855%; D: 2.068%; E: 0.6024%.
With N#Cc1ccccc1OCCN1CCC(C(=O)N2CCOCC2)CC1 the screen gave A: 6.663%; C: 13.55%; D: 0.3117%; E: 4.598%.
With CN(C(=O)NCc1ccncc1)C1CCCN(c2ccccc2)C1=O (configuration not stated) the screen gave A: 24.16%; C: 7.608%; D: 1.708%; E: -0.5882%.
With Cc1cccn2cc(CC(=O)N3CCCC(n4cncn4)C3)nc12 (configuration not stated) the screen gave A: 38.74%; B: -13.39%; C: -35.11%; D: -0.5158%; E: 2.29%.
With COc1cc(F)cc(NC(=O)NCc2cccc(N(C)C)n2)c1 the screen gave A: 2.561%; B: -613%; C: -3.816%; D: -0.3096%; E: 9.524%.
With Cc1cc(SC(C)(C)C)ccc1NC(C)C(=O)NC(N)=O (configuration not stated) the screen gave A: -16.97%; B: -15.36%; C: -3.686%; D: -3.68%; E: 0.5405%.
With Cn1cnc2ccc(NC(=O)CCCn3cccn3)cc2c1=O the screen gave A: -36.89%; B: -8.095%; C: 23.48%; D: 2.138%; E: 2%.
With Cc1ncncc1C(=O)N1CCCC(n2ccnc2C)C1 (configuration not stated) the screen gave A: 17.13%; B: 0.9756%; C: 5.117%; D: 0.5487%; E: 8%.
With COc1cccc(OCCNCc2c(C)nn(C)c2N(C)C)c1 the screen gave A: 18.65%; B: -10.63%; C: -10.73%; D: 6.1%; E: 3.422%.
With O=C(NCC1COCc2c(-c3ccncc3)nnn2C1)[C@H]1CCCO1 (some centres not stated) the screen gave D: 2.914%; E: 10.34%.
With O=C1CCC2(CCCN(C(=O)c3cccnc3)CC2)N1 (configuration not stated) the screen gave A: 12.12%; B: 0.4619%; C: -1.793%; D: 2.088%; E: 8.738%.
With CN(Cc1cccc(F)c1)C(=O)c1ccncc1Cl the screen gave A: -3.56%; B: -1.499%; C: -7.778%; D: -0.6436%; E: 3.933%.
With Nc1nccnc1C1CN(C(=O)c2cnc(C3CC3)nc2)CCO1 (configuration not stated) the screen gave A: 18.54% & 14.8%; B: -1.991%; C: -17.43%; D: 0.8218%; E: 2.239%.
With O=C(c1ccc(O)c(Cl)c1)N1C[C@@H](CN2CCCCCC2)[C@@H](CO)C1 the screen gave A: -29.45%; B: -32.99%; C: 8.329%; D: 3.07%; E: 4.469%.
With CCN1CC(=O)NCC12CCN(C(=O)c1ccco1)C2.O=C(O)C(F)(F)F (configuration not stated) the screen gave A: 15.84%; B: -16.35%; C: -24.77%.
With Cc1nc(C2CCCN2CCCn2c(=O)oc3ccccc32)no1 (configuration not stated) the screen gave A: -23.03%; B: -52.39%; C: 9.119%; D: -3.464%; E: 1.657%.
With CC(C)(C)C(O)CN1CCN(C(=O)c2cccc3[nH]ncc23)CC1 (configuration not stated) the screen gave A: -11.19%; B: -18.51%; C: -11.5%; D: 2.438%; E: -3.053%.

2 of the entries, repeated:

* N#Cc1ccccc1OCCN1CCC(C(=O)N2CCOCC2)CC1 | A: 6.663%; C: 13.55%; D: 0.3117%; E: 4.598%
* CN(C(=O)NCc1ccncc1)C1CCCN(c2ccccc2)C1=O (configuration not stated) | A: 24.16%; C: 7.608%; D: 1.708%; E: -0.5882%